In patent publication US7767817B2, “Water soluble boronic acid fluorescent reporter compounds and methods of use thereof” (priority 2003, dated 2010):
Some values come without a unit; they compare only within their column.

Test: Fluorescence intensity pH profile (apparent pKa)
Assay type: physicochemical
Conditions: for increase in fluorescence intensity: pH from 3 to 10
Excerpt: Since the fluorescence intensity increase upon binding with a sugar seems to be a general phenomenon, the fluorescence change mechanism of compound 5 at pH 7.4 was investigated. For this purpose, the fluorescence pH profiles of both compound 5 alone and compound 5 in the presence of fructose (0.5 M) were studied. The fluorescence intensity of 5 at 334 nm in the absence of sugars decreased upon changing the pH from 3 to 12 (FIG. 3). An apparent pKa of 7.0 was observed, which is assigned to the boronic acid moiety. […] It is well-known that the binding of a diol to boronic acid often lowers the pKa of the boron species) (Springsteen, G.; Wang, B. Tetrahedron 2002, 58, 5291-5300). Therefore, the pKa, which drops from 7.0 to 4.0, can also be reasonably assigned to boron. […] It seems that the fluorescence intensity change of compound 5 is also due to diol's perturbation as that of 8-quinolineboronic acid.
To examine the relationship between the fluorescence intensity changes and the boron ionization states, the pH profile of the fluorescence intensity in the absence and presence of fructose and glucose at a fixed concentration (50 mM) was also studied (FIG. 6). […] It is worth mentioning that the pKa of the protonated dimethyl amino group of 1 is […] the emission wavelength of 1 with the protonated dimethyl amino group at low pH is about 238 nm. Therefore, the fluorescence intensity of 1 at 445 nm was not affected by the protonated dimethyl amino group. The fluorescence intensity changes correspond to the boronic acid pKa (9.4) and therefore hybridization changes, which was responsible for the fluorescence intensity changes observed.
Since the fluorescence intensity increase upon binding with a sugar seems to be a general phenomenon, next the conditions under which optimal fluorescence intensity changes are observed upon addition of a sugar was investigated. For this purpose, the fluorescence pH profiles of both compound 6 alone and in the presence of fructose (0.5 M) were studied. The fluorescence intensity of 6 in the absence of sugars increased by 17-fold upon changing the pH from 3 to 12 (FIG. 10). […] Furthermore, one would expect the pKa values of the other two ionizable groups, the carboxylic acid and the quinolinium groups, to be less than 7. Therefore, assigning the pKa at 7.9 to the boronic acid moiety is the most reasonable option. […] It is well-known that the binding of a diol to boronic acid often lowers the pKa of the boron species. […] Upon addition of fructose, the pKa of the boron drops to about 5.2, which ensures that most of the boron species are in the anionic tetrahedral state at physiological pH.
Since the fluorescence intensity increase upon binding with a sugar seems to be a general phenomenon, the use of 5-QBA functions as a fluorescent probe for diols was investigated. The fluorescence pH profiles of both 5-QBA alone and 5-QBA in the presence of D-fructose (0.5 M) were investigated. […] In order to assign each pKa, the ^11B NMR spectra of 5-QBA and its ester in a mixed deuterated methanol-water (1:1) solvent at different pH were obtained. Methanol was used so that the concentration of 5-QBA can be increased to 57 mM so as to allow for a meaningful NMR determination within a reasonable period of time.
To understand the structural features associated with the fluorescence intensity changes, we studied the pH profiles of the fluorescence intensity in the absence (FIG. 18) and presence of fructose and glucose at a fixed concentration (50 mM). […] The fluorescence intensity at 513 nm increased very quickly when pH increased from 1.78 to 7.04 (thin lines in FIG. 18), and then decreased in the pH range of 7.04-10.54 (thick lines in FIG. 18).

OB(O)c1cccc2ncccc12 [Compound 3]
pH of the highest fluorescence intensity change (with versus without 0.5 M D-fructose): 5.8

CN(C)c1ccc(B(O)O)c2ccccc12 [Compound 1, 4-(dimethylamino)-naphthalene boronic acid]
increase in fluorescence intensity (presence of fructose 50 mM): over 140 fold
increase in fluorescence intensity (presence of glucose 50 mM): over 140 fold
emission intensity increase at 445 nm (pH from 3 to 12, absence of any carbohydrate): 168 fold

O=C(O)c1cc(-c2ccc(B(O)O)cc2)nc2ccccc12 [Compound 6, 2-(4-phenylboronic acid)-quinoline-4-carboxylic acid]
fluorescence intensity increase (pH from 2 to 10, presence of fructose 0.5 M): 35 fold
fluorescence intensity increase (pH from 3 to 12, absence of sugars): 17 fold

CN(C)c1cccc2c(B(O)O)cccc12 [Compound 7, 5-(Dimethylamino)-naphthalene-1-boronic acid]
intensity decrease at 335 nm (pH from 1.78 to 7.04): over 30 fold
